Construct, isoform or probe ends are uncertain for at least one entry.
Legend:
[1] = target: EGFR extracellular domain (Leu25-Ser645) Fc fusion (Homo sapiens) (UniProt P00533); assay: binding assay; conditions: 2'-F C and U (Durascribe transcription), purified recombinant protein
[2] = target: EGFRvIII (expressed on Ink4a/Arf-/- mouse neural stem cells) del6-273 (UniProt P00533); assay: activity assay; conditions: 2'-F C and U (Durascribe transcription); cell capture on glass, S.D. 143.3; PBS, 5 mM MgCl2, 37 C, 30 min; also FAM fluorescence binding FIG. 21; protein on the cell surface; protein details: retroviral expression
[3] = system: R2Bm DNA binding domain (zinc finger and myb motif) (Bombyx mori); assay: EMSA; conditions: 0.28-8.4 pmol protein; also on-chip binding (Sypro Ruby, I-V) in 50 mM Tris-HCl pH 8.0, 100 mM NaCl, 5 mM MgCl2; purified recombinant protein

Chains of the proteins cited; added tags and fusions are not shown. A line that says so, or that is headed by a name, gives the form on record, which may keep a tag or linker.
R2Bm DNA binding domain (zinc finger and myb motif) (Bombyx mori), one chain, as listed by the source: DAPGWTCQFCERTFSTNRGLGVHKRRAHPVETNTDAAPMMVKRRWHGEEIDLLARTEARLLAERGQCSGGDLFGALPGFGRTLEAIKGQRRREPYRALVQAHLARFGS

Sequence | binding result ([1]; break-junction conductance increase on EGFR capture, none on control without aptamer, EGFR construct and aptamer sequence not specified in this example) | Kd ([1]; method not stated, Kd quoted for selected aptamer before extension with capture sequence) [nM] | functional effect of the aptamer [2] [cells/mm2] | binding result [3]
GGCGCUCCGACCUUAGUCUCUGUGCCGCUAUAAUGCACGGAUUUAAUCGCCGUAGAAAAGCAUGUCAAAGCCGGAACCGUGUAGCACAGCAGAGAAUUAAAUGCCCGCCAUGACCAG [anti-EGFR RNA aptamer (extended)] | binds | 2.4 | 392 | 
CTTAAGGTAGCAAATGCCTCGTC (double strand) [R2Bm 23 bp target site (large ribosomal subunit rRNA gene)] |  |  |  | binds

From patent publication US20150010912
